Measurements reported in publication PMC12954580, “Multivalent glycoligands with lectin/enzyme dual specificity: self-deliverable glycosidase regulators” (Chemical Communications (Cambridge, England), 2019).
Structures were worked out from names or drawings and are uncertain.

Chains of the proteins cited; added tags and fusions are not shown. Residues count along the entry.
UniProt P04062, 40-536 limits assumed: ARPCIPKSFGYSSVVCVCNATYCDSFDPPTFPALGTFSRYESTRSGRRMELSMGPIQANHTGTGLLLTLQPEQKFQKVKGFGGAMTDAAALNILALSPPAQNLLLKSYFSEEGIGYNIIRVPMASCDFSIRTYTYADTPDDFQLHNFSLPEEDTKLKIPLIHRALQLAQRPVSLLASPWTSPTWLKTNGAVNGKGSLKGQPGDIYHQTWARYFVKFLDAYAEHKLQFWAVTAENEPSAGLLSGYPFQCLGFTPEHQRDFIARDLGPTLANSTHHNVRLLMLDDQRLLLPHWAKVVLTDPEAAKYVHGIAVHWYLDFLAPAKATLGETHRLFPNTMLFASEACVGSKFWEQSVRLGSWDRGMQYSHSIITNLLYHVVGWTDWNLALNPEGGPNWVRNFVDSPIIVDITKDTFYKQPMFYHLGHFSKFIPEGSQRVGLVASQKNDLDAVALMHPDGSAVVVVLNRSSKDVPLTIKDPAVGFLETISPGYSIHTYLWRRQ
UniProt P53341, whole entry: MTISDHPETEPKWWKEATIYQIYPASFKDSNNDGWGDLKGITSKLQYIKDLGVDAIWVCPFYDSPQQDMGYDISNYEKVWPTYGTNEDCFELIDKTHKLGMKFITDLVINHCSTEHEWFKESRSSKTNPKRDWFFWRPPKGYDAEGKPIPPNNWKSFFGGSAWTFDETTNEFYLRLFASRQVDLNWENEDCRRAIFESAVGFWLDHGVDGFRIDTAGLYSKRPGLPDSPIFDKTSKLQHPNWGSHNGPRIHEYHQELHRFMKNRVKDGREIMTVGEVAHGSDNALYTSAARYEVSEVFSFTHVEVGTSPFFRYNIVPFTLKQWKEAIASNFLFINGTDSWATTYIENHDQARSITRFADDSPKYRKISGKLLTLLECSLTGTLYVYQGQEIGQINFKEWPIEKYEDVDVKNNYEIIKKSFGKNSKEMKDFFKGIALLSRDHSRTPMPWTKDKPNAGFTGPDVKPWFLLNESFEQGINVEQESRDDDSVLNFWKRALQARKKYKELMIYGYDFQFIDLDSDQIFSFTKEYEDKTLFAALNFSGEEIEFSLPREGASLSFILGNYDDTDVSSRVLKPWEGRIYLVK
UniProt C0HJB3, whole entry: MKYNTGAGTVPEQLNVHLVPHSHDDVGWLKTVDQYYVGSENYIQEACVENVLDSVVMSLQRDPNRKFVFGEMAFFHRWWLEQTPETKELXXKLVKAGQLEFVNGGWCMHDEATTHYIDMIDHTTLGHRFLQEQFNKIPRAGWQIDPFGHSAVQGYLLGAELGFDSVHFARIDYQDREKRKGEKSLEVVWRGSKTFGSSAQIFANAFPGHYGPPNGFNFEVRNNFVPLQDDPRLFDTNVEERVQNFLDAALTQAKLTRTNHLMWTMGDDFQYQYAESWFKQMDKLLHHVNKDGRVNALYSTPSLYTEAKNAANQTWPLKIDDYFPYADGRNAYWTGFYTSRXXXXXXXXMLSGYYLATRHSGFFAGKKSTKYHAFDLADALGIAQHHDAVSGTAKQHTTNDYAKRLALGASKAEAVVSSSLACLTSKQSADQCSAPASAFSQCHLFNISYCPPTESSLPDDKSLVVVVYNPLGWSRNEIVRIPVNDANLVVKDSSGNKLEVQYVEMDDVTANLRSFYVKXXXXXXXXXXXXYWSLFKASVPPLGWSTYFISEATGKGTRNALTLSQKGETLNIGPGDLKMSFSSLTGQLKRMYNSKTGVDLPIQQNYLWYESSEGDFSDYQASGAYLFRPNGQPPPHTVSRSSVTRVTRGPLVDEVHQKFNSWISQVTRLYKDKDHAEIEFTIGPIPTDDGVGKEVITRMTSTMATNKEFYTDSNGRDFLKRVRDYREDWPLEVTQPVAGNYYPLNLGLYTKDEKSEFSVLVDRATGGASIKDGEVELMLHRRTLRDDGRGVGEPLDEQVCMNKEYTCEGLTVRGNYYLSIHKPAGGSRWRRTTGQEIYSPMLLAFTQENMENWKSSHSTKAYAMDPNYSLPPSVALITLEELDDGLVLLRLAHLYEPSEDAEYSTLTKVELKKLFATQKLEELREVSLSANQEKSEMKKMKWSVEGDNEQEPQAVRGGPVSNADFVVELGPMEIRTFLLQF
UniProt P22897, 19-1456 limits assumed: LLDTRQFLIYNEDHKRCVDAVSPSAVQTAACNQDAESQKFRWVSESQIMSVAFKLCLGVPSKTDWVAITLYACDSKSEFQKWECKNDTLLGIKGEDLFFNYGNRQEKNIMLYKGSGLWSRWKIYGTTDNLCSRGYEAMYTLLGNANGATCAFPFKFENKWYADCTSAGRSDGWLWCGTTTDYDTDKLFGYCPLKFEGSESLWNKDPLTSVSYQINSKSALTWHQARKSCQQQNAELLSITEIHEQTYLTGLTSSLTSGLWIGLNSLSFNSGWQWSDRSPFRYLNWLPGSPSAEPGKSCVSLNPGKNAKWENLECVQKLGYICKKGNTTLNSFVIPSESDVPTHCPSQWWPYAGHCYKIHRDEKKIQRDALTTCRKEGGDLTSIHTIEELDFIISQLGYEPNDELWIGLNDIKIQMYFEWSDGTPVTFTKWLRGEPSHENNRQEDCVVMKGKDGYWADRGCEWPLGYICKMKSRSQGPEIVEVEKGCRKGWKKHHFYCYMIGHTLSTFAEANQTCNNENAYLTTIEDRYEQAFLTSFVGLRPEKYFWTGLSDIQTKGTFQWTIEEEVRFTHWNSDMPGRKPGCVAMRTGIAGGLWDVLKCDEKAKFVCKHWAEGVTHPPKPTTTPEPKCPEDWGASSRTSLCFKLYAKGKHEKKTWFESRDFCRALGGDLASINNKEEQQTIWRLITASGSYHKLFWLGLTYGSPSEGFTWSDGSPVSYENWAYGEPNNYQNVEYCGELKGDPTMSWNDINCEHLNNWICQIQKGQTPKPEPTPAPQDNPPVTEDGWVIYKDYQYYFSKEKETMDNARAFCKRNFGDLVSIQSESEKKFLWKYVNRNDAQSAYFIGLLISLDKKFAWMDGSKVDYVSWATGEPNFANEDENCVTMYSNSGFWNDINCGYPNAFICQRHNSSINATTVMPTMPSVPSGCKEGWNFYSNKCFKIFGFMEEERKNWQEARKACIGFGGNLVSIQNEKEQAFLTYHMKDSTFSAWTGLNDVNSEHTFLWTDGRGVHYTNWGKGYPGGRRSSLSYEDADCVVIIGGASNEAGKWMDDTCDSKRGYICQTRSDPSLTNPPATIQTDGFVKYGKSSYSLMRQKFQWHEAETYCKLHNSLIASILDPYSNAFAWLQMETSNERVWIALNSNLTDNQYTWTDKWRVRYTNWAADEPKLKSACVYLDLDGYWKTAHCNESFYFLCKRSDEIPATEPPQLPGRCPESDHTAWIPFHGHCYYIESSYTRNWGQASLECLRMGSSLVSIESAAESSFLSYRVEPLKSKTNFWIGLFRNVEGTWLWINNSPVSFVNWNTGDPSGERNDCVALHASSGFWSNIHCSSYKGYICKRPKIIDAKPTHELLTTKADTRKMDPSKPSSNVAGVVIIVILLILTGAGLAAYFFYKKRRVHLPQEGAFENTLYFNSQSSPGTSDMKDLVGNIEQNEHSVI
UniProt Q42656, 16-378 limits assumed: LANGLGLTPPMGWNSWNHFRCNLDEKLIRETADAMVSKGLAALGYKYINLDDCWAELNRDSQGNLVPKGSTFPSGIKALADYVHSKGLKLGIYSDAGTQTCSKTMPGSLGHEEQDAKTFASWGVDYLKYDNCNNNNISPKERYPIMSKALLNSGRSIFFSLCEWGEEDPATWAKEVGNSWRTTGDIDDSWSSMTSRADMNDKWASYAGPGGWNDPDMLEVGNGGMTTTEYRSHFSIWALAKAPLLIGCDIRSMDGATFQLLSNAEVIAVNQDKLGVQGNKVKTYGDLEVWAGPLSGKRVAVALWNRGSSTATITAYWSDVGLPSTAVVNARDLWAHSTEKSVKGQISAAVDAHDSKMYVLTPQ
UniProt O00754, 50-1011 limits assumed: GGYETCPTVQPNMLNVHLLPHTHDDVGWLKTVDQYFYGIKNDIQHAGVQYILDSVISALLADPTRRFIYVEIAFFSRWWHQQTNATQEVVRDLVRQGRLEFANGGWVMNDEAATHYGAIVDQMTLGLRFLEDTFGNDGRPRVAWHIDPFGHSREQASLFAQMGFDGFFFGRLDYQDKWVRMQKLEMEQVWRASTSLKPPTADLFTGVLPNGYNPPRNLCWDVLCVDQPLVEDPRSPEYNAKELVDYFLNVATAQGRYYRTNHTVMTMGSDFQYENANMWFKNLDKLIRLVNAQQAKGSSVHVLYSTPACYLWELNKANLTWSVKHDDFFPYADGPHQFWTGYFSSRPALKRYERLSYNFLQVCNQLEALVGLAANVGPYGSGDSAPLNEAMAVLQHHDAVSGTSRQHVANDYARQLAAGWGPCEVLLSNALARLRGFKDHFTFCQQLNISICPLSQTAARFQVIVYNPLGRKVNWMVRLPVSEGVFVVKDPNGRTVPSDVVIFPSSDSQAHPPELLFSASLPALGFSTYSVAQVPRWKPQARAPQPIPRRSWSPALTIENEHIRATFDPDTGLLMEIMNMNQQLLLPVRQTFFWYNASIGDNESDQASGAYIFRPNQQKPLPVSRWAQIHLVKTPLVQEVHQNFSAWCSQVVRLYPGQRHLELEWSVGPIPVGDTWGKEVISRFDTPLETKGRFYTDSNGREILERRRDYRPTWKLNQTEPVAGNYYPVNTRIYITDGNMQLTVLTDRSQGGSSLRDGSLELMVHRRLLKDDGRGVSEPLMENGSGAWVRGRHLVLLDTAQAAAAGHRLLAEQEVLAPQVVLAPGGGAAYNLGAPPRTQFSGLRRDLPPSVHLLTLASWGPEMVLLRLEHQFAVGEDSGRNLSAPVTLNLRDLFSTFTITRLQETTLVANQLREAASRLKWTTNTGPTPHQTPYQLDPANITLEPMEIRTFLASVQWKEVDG

Tests used:
[1] = target: lysosomal β-glucocerebrosidase (GCase) (Homo sapiens, UniProt P04062); assay: Human enzyme assay in fibroblast lysates, GCase; conditions: for IC50: read-out: IC50 GCase, cell lysates (human fibroblasts), 4-MU glycoside substrate, 37 °C, 60 min
[2] = target: α-glucosidase (S. cerevisiae) (Saccharomyces cerevisiae, UniProt P53341); assay: Inhibition studies with commercial enzymes (Ki), α-glucosidase; format: biochemical; conditions: read-out: Ki against α-glucosidase (S. cerevisiae); commercial enzyme, p-nitrophenyl glycopyranoside substrate, 37 °C; n.i. = no inhibition
Protocol: (§1) General Methods. All commercial chemicals were of reagent grade and were used without
(§2) further purification. 6-Azidohexyl α-D-manopyranoside (14),1 hepta(2,3-di-O-methyl-6-O-
(§3) propargyl)cyclomaltoheptaose (15),2 heptakis (2,6 -di-O-propargyl)cyclomaltoheptaose (16),3
(§4) pentynoic acid succinimide ester (17)4, the tetravalent mannosylated glycocluster 75 and 95 and
(§5) the azide-functionalized RAFT cyclopeptide 206 were prepared following the previously reported
(§6) protocols. All protected amino acids, Fmoc-Gly-Sasrin® and Rink Amide MBHA resins were
(§7) obtained from Advanced ChemTech Europe (Brussels, Belgium), BachemBiochimie SARL
(§8) (Voisins-Les-Bretonneux, France) and France Biochem S.A. (Meudon, France). […]
(§9) 600 controller and a Waters 2487 Dual Absorbance Detector equipped with a fraction collector. […]
(§10) monitoring at 214 nm and 250 nm using a linear A –B gradient. Optical rotations were measured […]
(§11) recorded at 500 (125.7) MHz with Bruker 500 DRX o BrukerAvance III spectrometers and […]
(§12) was carried out on Silica Gel 60. ESI mass spectra of βCD derivatives were recorded on a Bruker […]
(§13) glycopeptides were measured on an Esquire 3000 spectrometer from Bruker or on an Acquity […]
(§14) Inhibition studies with commercial enzymes. Inhibition constant (Ki) values were determined […]
(§15) rates. The absorbance of the resulting mixture was determined at 405 nm. […]
(§16) of Ki was determined from the slope of Dixon plots using a fixed concentration of substrate […]

[3] = target: α-mannosidase (jack beans) (Canavalia ensiformis, UniProt C0HJB3); assay: Inhibition studies with commercial enzymes (Ki), α-mannosidase; format: biochemical; conditions: read-out: Ki against α-mannosidase (jack beans); commercial enzyme, phosphate-citrate buffer, 37 °C; Table S1
Protocol: as §1, §2, §3, §4, §5, §6, §7, §8, §9, §10, §11, §12, §13, §14, §15, §16

[4] = target: recombinant human MMR (macrophage mannose receptor) (Homo sapiens, UniProt P22897); assay: Modified ELLA: inhibition of rhMMR binding to yeast mannan; conditions: read-out: IC50 for inhibition of recombinant human MMR binding to yeast mannan, mean of three independent experiments ± SD
[5] = target: α-galactosidase (green coffee beans) (Coffea arabica, UniProt Q42656); assay: Inhibition studies with commercial enzymes (Ki), α-galactosidase; format: biochemical, green coffee bean; conditions: commercial enzyme, 37 °C
Protocol: as §1, §2, §3, §4, §5, §6, §7, §8, §9, §10, §11, §12, §13, §14, §15, §16

[6] = target: β-glucosidase (bovine liver); assay: Inhibition studies with commercial enzymes (Ki), β-glucosidase; format: biochemical
Protocol: as §1, §2, §3, §4, §5, §6, §7
(Voisins-Les-Bretonneux, France) and France Biochem S.A. (Meudon, France). For peptides and
glycopeptides, analytical RP-HPLC was performed on a Waters alliance 2695 separation module,
equipped with a Waters 2489 UV/visible detector. Analyses were carried out at 1.23 mL/min
(Interchim […]-SERIE, C18, 5 µm, 125x3.0 mm) with UV monitoring at 214 nm and 250
nm using a linear A–B gradient (buffer A: 0.09% CF3CO2H in water; buffer B: 0.09% CF3CO2H in
90% acetonitrile). Preparative HPLC was performed on Waters equipment consisting of a Waters
600 controller and a Waters 2487 Dual Absorbance Detector equipped with a fraction collector.
Purifications were carried out at 22.0 mL/min (VP 250x21 mm nucleosil 100-7 C18) with UV
monitoring at 214 nm and 250 nm using a linear A –B gradient. Optical rotations were measured
at 20 ± 2 °C in 1-dm tubes on a Jasco P-2000 polarimeter. […]
as §11, §12, §13, §14, §15, §16
Ki determinations and enzyme inhibition mode were determined from the slope of Lineweaver - […]

[7] = target: lysosomal α-mannosidase (LAMAN) (Homo sapiens, UniProt O00754); assay: Human enzyme assay in fibroblast lysates, LAMAN; conditions: read-out: IC50 LAMAN (headed Manase in Fig. 3A); cell lysates (human fibroblasts), 4-MU glycoside substrate, 37 °C, 60 min
[8] = target: concanavalin A (ConA) (Canavalia ensiformis, UniProt P02866); assay: Enzyme-linked lectin assay (ELLA), HRP-ConA/mannan binding inhibition; design: species or system Concanavalia einsiformis; conditions: read-out: IC50 for HRP-ConA/mannan binding inhibition, Figure S19A, values printed over bars, axis log [IC50, M]

| SMILES | GCase/lysosomal α-glucosidase anomeric selectivity ratio ([1]; cell (fibroblast) lysates) | IC50 [1] | Ki [2] | Ki [3] | IC50 [4] | Ki against α-galactosidase (green coffee bean) [5] | Ki ([6]; read-out: Ki against mammalian β-glucosidase (Glcase), bovine liver enzyme) | IC50 [7] | IC50 [8] | Inhibition behaviour towards mammalian β-glucosidase (Glcase) ([6]; bovine liver enzyme, in words) | Ki against β-glucosidase (bovine liver) ([6]; commercial enzyme, p-nitrophenyl glycopyranoside substrate, 37 °C, Table S1) |
| --- | --- | --- | --- | --- | --- | --- | --- | --- | --- | --- | --- |
| CO[C@@H]1[C@@H](OC)[C@H]2O[C@H]3[C@H](OC)[C@@H](OC)[C@@H](O[C@H]4[C@H](OC)[C@@H](OC)[C@@H](O[C@H]5[C@H](OC)[C@@H](OC)[C@@H](O[C@H]6[C@H](OC)[C@@H](OC)[C@@H](O[C@H]7[C@H](OC)[C@@H](OC)[C@@H](O[C@H]8[C@H](OC)[C@@H](OC)[C@@H](O[C@@H]1[C@@H](COCc1cn(CCCCCCO[C@H]9O[C@H](CO)[C@@H](O)[C@H](O)[C@@H]9O)nn1)O2)O[C@@H]8COCc1cn(CCCCCCO[C@H]2O[C@H](CO)[C@@H](O)[C@H](O)[C@@H]2O)nn1)O[C@@H]7COCc1cn(CCCCCCO[C@H]2O[C@H](CO)[C@@H](O)[C@H](O)[C@@H]2O)nn1)O[C@@H]6COCc1cn(CCCCCCO[C@H]2O[C@H](CO)[C@@H](O)[C@H](O)[C@@H]2O)nn1)O[C@@H]5COCc1cn(CCCCCCO[C@H]2O[C@H](CO)[C@@H](O)[C@H](O)[C@@H]2O)nn1)O[C@@H]4COCc1cn(CCCCCCO[C@H]2O[C@H](CO)[C@@H](O)[C@H](O)[C@@H]2O)nn1)O[C@@H]3COCc1cn(CCCCCCO[C@H]2O[C@H](CO)[C@@H](O)[C@H](O)[C@@H]2O)nn1 | over 100 | 100 nM | 129 µM | 451 µM | 1800 nM | n.i. | 7.3 µM | > 100 µM | 0.00015 M | – | – |
| OC[C@H]1O[C@H](OCCCCCCn2cc(COC[C@H]3O[C@@H]4O[C@H]5[C@H](O)[C@@H](OCc6cn(CCCCCCO[C@H]7O[C@H](CO)[C@@H](O)[C@H](O)[C@@H]7O)nn6)[C@@H](O[C@H]6[C@H](O)[C@@H](OCc7cn(CCCCCCO[C@H]8O[C@H](CO)[C@@H](O)[C@H](O)[C@@H]8O)nn7)[C@@H](O[C@H]7[C@H](O)[C@@H](OCc8cn(CCCCCCO[C@H]9O[C@H](CO)[C@@H](O)[C@H](O)[C@@H]9O)nn8)[C@@H](O[C@H]8[C@H](O)[C@@H](OCc9cn(CCCCCCO[C@H]%10O[C@H](CO)[C@@H](O)[C@H](O)[C@@H]%10O)nn9)[C@@H](O[C@H]9[C@H](O)[C@@H](OCc%10cn(CCCCCCO[C@H]%11O[C@H](CO)[C@@H](O)[C@H](O)[C@@H]%11O)nn%10)[C@@H](O[C@H]%10[C@H](O)[C@@H](OCc%11cn(CCCCCCO[C@H]%12O[C@H](CO)[C@@H](O)[C@H](O)[C@@H]%12O)nn%11)[C@@H](O[C@H]3[C@H](O)[C@H]4OCc3cn(CCCCCCO[C@H]4O[C@H](CO)[C@@H](O)[C@H](O)[C@@H]4O)nn3)O[C@@H]%10COCc3cn(CCCCCCO[C@H]4O[C@H](CO)[C@@H](O)[C@H](O)[C@@H]4O)nn3)O[C@@H]9COCc3cn(CCCCCCO[C@H]4O[C@H](CO)[C@@H](O)[C@H](O)[C@@H]4O)nn3)O[C@@H]8COCc3cn(CCCCCCO[C@H]4O[C@H](CO)[C@@H](O)[C@H](O)[C@@H]4O)nn3)O[C@@H]7COCc3cn(CCCCCCO[C@H]4O[C@H](CO)[C@@H](O)[C@H](O)[C@@H]4O)nn3)O[C@@H]6COCc3cn(CCCCCCO[C@H]4O[C@H](CO)[C@@H](O)[C@H](O)[C@@H]4O)nn3)O[C@@H]5COCc3cn(CCCCCCO[C@H]4O[C@H](CO)[C@@H](O)[C@H](O)[C@@H]4O)nn3)nn2)[C@@H](O)[C@@H](O)[C@@H]1O | – | > 100000 nM | 300 µM | 118 µM | – | n.i. | – | 11 µM | 1.2e-05 M | cancelled | n.i. |
